{"source": "the supplement of paper PMC8728848", "assay_in_all_cases": "glycan array binding signal (z-score within array); higher = stronger binding", "settings_in_all_cases": "glycan notation: IUPAC condensed, linker removed", "key": {"[1]": {"molecular_target": "Gal(b1-4)GlcNAc(b1-3)Gal(b1-4)GlcNAc(b1-2)[Gal(b1-4)GlcNAc(b1-3)Gal(b1-4)GlcNAc(b1-6)]Man(a1-6)[Gal(b1-4)GlcNAc(b1-3)Gal(b1-4)GlcNAc(b1-2)Man(a1-3)]Man(b1-4)GlcNAc(b1-4)GlcNAc", "outline": "(§1)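 Glycan array data were curated from 3228 arrays in the Consortium for Functional Glycomics database and kept only where the protein sequence was available. Glycan names were converted to IUPAC-condensed notation, and columns mapping to the same glycan were averaged. The binding signal is a within-array Z-score, averaged across arrays of the same protein sequence at different concentrations or buffers and across linkers. Negative Z-scores can be read as non-binding.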"}, "[2]": {"molecular_target": "Gal(b1-4)GlcNAc(b1-3)Gal(b1-4)GlcNAc(b1-2)[Gal(b1-4)GlcNAc(b1-3)Gal(b1-4)GlcNAc(b1-6)]Man(a1-6)[Gal(b1-4)GlcNAc(b1-3)Gal(b1-4)GlcNAc(b1-2)Man(a1-3)]Man(b1-4)GlcNAc(b1-4)[Fuc(a1-6)]GlcNAc", "outline": "as §1"}, "[3]": {"molecular_target": "Gal(b1-4)GlcNAc(b1-3)Gal(b1-4)GlcNAc(b1-3)Gal(b1-4)GlcNAc", "outline": "as §1"}, "[4]": {"molecular_target": "Gal(b1-4)GlcNAc(b1-3)Gal(b1-4)GlcNAc(b1-3)Gal(b1-4)GlcNAc(b1-2)Man(a1-3)[Gal(b1-4)GlcNAc(b1-3)Gal(b1-4)GlcNAc(b1-3)Gal(b1-4)GlcNAc(b1-2)Man(a1-6)]Man(b1-4)GlcNAc(b1-4)GlcNAc", "outline": "as §1"}, "[5]": {"molecular_target": "Gal(b1-4)GlcNAc(b1-3)Gal(b1-4)GlcNAc(b1-3)Gal(b1-4)GlcNAc(b1-2)Man(a1-3)[Gal(b1-4)GlcNAc(b1-3)Gal(b1-4)GlcNAc(b1-3)Gal(b1-4)GlcNAc(b1-2)Man(a1-6)]Man(b1-4)GlcNAc(b1-4)[Fuc(a1-6)]GlcNAc", "outline": "as §1"}, "[6]": {"molecular_target": "Gal(b1-4)GlcNAc(b1-3)Gal(b1-4)GlcNAc(b1-3)Gal(b1-4)GlcNAc(b1-2)[Gal(b1-4)GlcNAc(b1-3)Gal(b1-4)GlcNAc(b1-3)Gal(b1-4)GlcNAc(b1-6)]Man(a1-6)[Gal(b1-4)GlcNAc(b1-3)Gal(b1-4)GlcNAc(b1-3)Gal(b1-4)GlcNAc(b1-2)Man(a1-3)]Man(b1-4)GlcNAc(b1-4)[Fuc(a1-6)]GlcNAc", "outline": "as §1"}, "[7]": {"molecular_target": "Gal(b1-4)GlcNAc(b1-3)Gal(b1-4)GlcNAc(b1-3)Gal(b1-4)GlcNAc(b1-3)Gal(b1-4)GlcNAc(b1-2)Man(a1-3)[Gal(b1-4)GlcNAc(b1-3)Gal(b1-4)GlcNAc(b1-3)Gal(b1-4)GlcNAc(b1-3)Gal(b1-4)GlcNAc(b1-2)Man(a1-6)]Man(b1-4)GlcNAc(b1-4)GlcNAc", "outline": "as §1"}, "[8]": {"molecular_target": "Gal(b1-4)GlcNAc(b1-3)Gal(b1-4)GlcNAc(b1-3)Gal(b1-4)GlcNAc(b1-3)Gal(b1-4)GlcNAc(b1-2)Man(a1-3)[Gal(b1-4)GlcNAc(b1-3)Gal(b1-4)GlcNAc(b1-3)Gal(b1-4)GlcNAc(b1-3)Gal(b1-4)GlcNAc(b1-2)Man(a1-6)]Man(b1-4)GlcNAc(b1-4)[Fuc(a1-6)]GlcNAc", "outline": "as §1"}, "[9]": {"molecular_target": "Gal(b1-4)GlcNAc(b1-3)Gal(b1-4)GlcNAc(b1-3)Gal(b1-4)GlcNAc(b1-3)Gal(b1-4)GlcNAc(b1-2)[Gal(b1-4)GlcNAc(b1-3)Gal(b1-4)GlcNAc(b1-3)Gal(b1-4)GlcNAc(b1-3)Gal(b1-4)GlcNAc(b1-6)]Man(a1-6)[Gal(b1-4)GlcNAc(b1-3)Gal(b1-4)GlcNAc(b1-3)Gal(b1-4)GlcNAc(b1-3)Gal(b1-4)GlcNAc(b1-2)Man(a1-3)]Man(b1-4)GlcNAc(b1-4)[Fuc(a1-6)]GlcNAc", "outline": "as §1"}, "[10]": {"molecular_target": "Gal(b1-4)GlcNAc(b1-3)Gal(b1-4)GlcNAc(b1-3)Gal(b1-4)GlcNAc(b1-3)Gal(b1-4)GlcNAc(b1-3)Gal(b1-4)GlcNAc(b1-2)Man(a1-3)[Gal(b1-4)GlcNAc(b1-3)Gal(b1-4)GlcNAc(b1-3)Gal(b1-4)GlcNAc(b1-3)Gal(b1-4)GlcNAc(b1-3)Gal(b1-4)GlcNAc(b1-2)Man(a1-6)]Man(b1-4)GlcNAc(b1-4)GlcNAc", "outline": "as §1"}, "[11]": {"molecular_target": "Gal(b1-4)GlcNAc(b1-3)Gal(b1-4)GlcNAc(b1-3)Gal(b1-4)GlcNAc(b1-3)Gal(b1-4)GlcNAc(b1-3)Gal(b1-4)GlcNAc(b1-2)Man(a1-3)[Gal(b1-4)GlcNAc(b1-3)Gal(b1-4)GlcNAc(b1-3)Gal(b1-4)GlcNAc(b1-3)Gal(b1-4)GlcNAc(b1-3)Gal(b1-4)GlcNAc(b1-2)Man(a1-6)]Man(b1-4)GlcNAc(b1-4)[Fuc(a1-6)]GlcNAc", "outline": "as §1"}, "[12]": {"molecular_target": "Gal(b1-4)GlcNAc(b1-3)Gal(b1-4)GlcNAc(b1-3)Gal(b1-4)GlcNAc(b1-3)Gal(b1-4)GlcNAc(b1-3)Gal(b1-4)GlcNAc(b1-2)[Gal(b1-4)GlcNAc(b1-3)Gal(b1-4)GlcNAc(b1-3)Gal(b1-4)GlcNAc(b1-3)Gal(b1-4)GlcNAc(b1-3)Gal(b1-4)GlcNAc(b1-6)]Man(a1-6)[Gal(b1-4)GlcNAc(b1-3)Gal(b1-4)GlcNAc(b1-3)Gal(b1-4)GlcNAc(b1-3)Gal(b1-4)GlcNAc(b1-3)Gal(b1-4)GlcNAc(b1-2)Man(a1-3)]Man(b1-4)GlcNAc(b1-4)[Fuc(a1-6)]GlcNAc", "outline": "as §1"}, "[13]": {"molecular_target": "Gal(b1-4)GlcNAc(b1-3)Gal(b1-4)GlcNAc(b1-3)Gal(b1-4)GlcNAc(b1-3)Gal(b1-4)GlcNAc(b1-3)Gal(b1-4)GlcNAc(b1-3)Gal(b1-4)GlcNAc(b1-2)Man(a1-3)[Gal(b1-4)GlcNAc(b1-3)Gal(b1-4)GlcNAc(b1-3)Gal(b1-4)GlcNAc(b1-3)Gal(b1-4)GlcNAc(b1-3)Gal(b1-4)GlcNAc(b1-3)Gal(b1-4)GlcNAc(b1-2)Man(a1-6)]Man(b1-4)GlcNAc(b1-4)GlcNAc", "outline": "as §1"}, "[14]": {"molecular_target": "Gal(b1-4)GlcNAc(b1-3)Gal(b1-4)GlcNAc(b1-3)GalNAc", "outline": "as §1"}, "[15]": {"molecular_target": "Gal(b1-4)GlcNAc(b1-3)Gal(b1-4)GlcNAc(b1-3)[Gal(b1-4)GlcNAc(b1-3)Gal(b1-4)GlcNAc(b1-6)]GalNAc", "outline": "as §1"}, "[16]": {"molecular_target": "Gal(b1-4)GlcNAc(b1-3)Gal(b1-4)GlcNAc(b1-6)[Gal(b1-3)]GalNAc", "outline": "as §1"}, "[17]": {"molecular_target": "Gal(b1-4)GlcNAc(b1-3)Gal(b1-4)[Fuc(a1-3)]GlcNAc(b1-3)Gal(b1-4)[Fuc(a1-3)]GlcNAc", "outline": "as §1"}, "[18]": {"molecular_target": "Gal(b1-4)GlcNAc(b1-3)GalNAc", "outline": "as §1"}, "[19]": {"molecular_target": "Gal(b1-4)GlcNAc(b1-3)[Fuc(a1-3)GlcNAc(b1-6)]Gal(b1-4)Glc", "outline": "as §1"}, "[20]": {"molecular_target": "Gal(b1-4)GlcNAc(b1-3)[Gal(b1-4)GlcNAc(b1-6)]Gal(b1-4)GlcNAc", "outline": "as §1"}, "[21]": {"molecular_target": "Gal(b1-4)GlcNAc(b1-3)[GlcNAc(b1-6)]Gal(b1-4)GlcNAc", "outline": "as §1"}, "[22]": {"molecular_target": "Gal(b1-4)GlcNAc(b1-6)Gal(b1-4)GlcNAc", "outline": "as §1"}, "[23]": {"molecular_target": "Gal(b1-4)GlcNAc(b1-6)GalNAc", "outline": "as §1"}, "[24]": {"molecular_target": "Gal(b1-4)GlcNAc(b1-6)[Gal(b1-3)]GalNAc", "outline": "as §1"}, "[25]": {"molecular_target": "Gal(b1-4)GlcNAc(b1-6)[Gal(b1-4)GlcNAc(b1-3)]GalNAc", "outline": "as §1"}, "[26]": {"molecular_target": "Gal(b1-4)GlcNAc6P", "outline": "as §1"}, "[27]": {"molecular_target": "Gal(b1-6)Gal", "outline": "as §1"}, "[28]": {"molecular_target": "Gal3S(b1-3)GalNAc", "outline": "as §1"}, "[29]": {"molecular_target": "Gal3S(b1-3)GlcNAc", "outline": "as §1"}, "[30]": {"molecular_target": "Gal3S(b1-3)[Fuc(a1-4)]GlcNAc", "outline": "as §1"}}, "note": "The list shows a part of the results."}
{"binder": "PX14343F-bfa-562-20-562 (Bacteroides fragilis) (protein) CDDFLDSFPQDTVTNENFWKSKEDADKVLVDIYASLLPKDAIFFDEAMSDNAYLVWDWWGGAQQVANGSYTTSGEIPTNRWNGSYEVIRKCWFLLEGIEKIEDISEQDKNKIIGETYFMLAYNYYVLTSYFGDVPLVTKTLAIPESKQLVRTPKAEVVDYAINKLKEAAVMLEGLSQEKGRVTADACRFLIARMYLYNGDYSNVLETVKLLEGKYQLYREGDTPYEDLFSGVAENSCEVILSVVCDKRVGEIYTSHGGNGIMLLKGITGEDPYRGVTPSGSLVDAYPMADGRLIHEAGSSYDPKKPYEGRDPRFYQSIVYPTGQIKYLDVETGTVKERLYDPEDPTTVPEHQYNYSQPSATGYMWNKYIDYSVYAMNSVWDCTNDIIVFRYADVLLMKAEALLQTKGESAKEEVCNLIDQLRDRCSCGRVHRENYNSKDELMELLKNERRIELANEGLRYMDLIRWKDAEKNTIVTGVGLTGQMYGAYMRKDGVGKDDKTVDVDNTPRRYIETRYFNASKGYLFPIPQKERDLNPNLTQNPNW", "values": [{"measurement": "glycan array binding signal (z-score)", "setting": "[1]", "result": 1.2}, {"measurement": "glycan array binding signal (z-score)", "setting": "[2]", "result": 1.44}, {"measurement": "glycan array binding signal (z-score)", "setting": "[3]", "result": -0.468}, {"measurement": "glycan array binding signal (z-score)", "setting": "[4]", "result": 0.911}, {"measurement": "glycan array binding signal (z-score)", "setting": "[5]", "result": -0.378}, {"measurement": "glycan array binding signal (z-score)", "setting": "[6]", "result": 0.566}, {"measurement": "glycan array binding signal (z-score)", "setting": "[7]", "result": 0.79}, {"measurement": "glycan array binding signal (z-score)", "setting": "[8]", "result": -0.007}, {"measurement": "glycan array binding signal (z-score)", "setting": "[9]", "result": 1.04}, {"measurement": "glycan array binding signal (z-score)", "setting": "[10]", "result": 0.735}, {"measurement": "glycan array binding signal (z-score)", "setting": "[11]", "result": 0.733}, {"measurement": "glycan array binding signal (z-score)", "setting": "[12]", "result": 0.714}, {"measurement": "glycan array binding signal (z-score)", "setting": "[13]", "result": 0.274}, {"measurement": "glycan array binding signal (z-score)", "setting": "[14]", "result": -0.25}, {"measurement": "glycan array binding signal (z-score)", "setting": "[15]", "result": 0.057}, {"measurement": "glycan array binding signal (z-score)", "setting": "[16]", "result": -0.379}, {"measurement": "glycan array binding signal (z-score)", "setting": "[17]", "result": -0.059}, {"measurement": "glycan array binding signal (z-score)", "setting": "[18]", "result": -0.276}, {"measurement": "glycan array binding signal (z-score)", "setting": "[19]", "result": 1.78}, {"measurement": "glycan array binding signal (z-score)", "setting": "[20]", "result": -0.178}, {"measurement": "glycan array binding signal (z-score)", "setting": "[21]", "result": -0.487}, {"measurement": "glycan array binding signal (z-score)", "setting": "[22]", "result": -0.487}, {"measurement": "glycan array binding signal (z-score)", "setting": "[23]", "result": 0.45}, {"measurement": "glycan array binding signal (z-score)", "setting": "[24]", "result": -0.082}, {"measurement": "glycan array binding signal (z-score)", "setting": "[25]", "result": -0.149}, {"measurement": "glycan array binding signal (z-score)", "setting": "[26]", "result": 0.108}, {"measurement": "glycan array binding signal (z-score)", "setting": "[27]", "result": -0.114}, {"measurement": "glycan array binding signal (z-score)", "setting": "[28]", "result": -0.168}, {"measurement": "glycan array binding signal (z-score)", "setting": "[29]", "result": -0.276}, {"measurement": "glycan array binding signal (z-score)", "setting": "[30]", "result": -0.53}]}
